This is an account of results in PubChem BioAssay AID256 (DTP/NCI, 2004).

The list shows only some results of the screen, not a fair sample: it is rich in T/C values a quarter to a half above the control, in often repeated tests (any T/C) and in doses without a T/C. Other doses and runs of a compound stand elsewhere. T/C is the treated group as % of the vehicle group. Some doses have a count of surviving animals in place of a T/C: the source files T/C as zero there, which appears to mark a toxic dose or a test without result, not a measured value. Some doses without a T/C left all or most animals alive at the check, yet need not have been tolerated: the source hardly ever lists a survival T/C far under the control, and the zero likely stands for such cases as well. Survivors were counted at the toxicity check, usually on the fifth day, unless a day is given; later deaths do not show. Schedule codes are those of the source, taken here to give the interval after Q, in days (D) or hours (H), and the number of doses after X. Some schedules carry Z or #; the key to these is not given. For survival time, the PubChem record calls one and a half times the control and up active, and a quarter to a half above the control has no call in these data; cut-offs in other NCI protocols can differ. Some T/C values carry the count of animals alive at the toxicity check (mostly the fifth day); without a count, all were alive then. Some entries were tested several times; the values are given in rising order. Brackets with × count equal records among those shown.

The experiment concerns CD2F1 mice, L1210 leukemia ip, survival T/C. The experiment can be described thus: NCI In Vivo Anticancer Drug Screen. Data for tumor model L1210 Leukemia (intraperitoneal) in CD2F1 (CDF1) mice. The note with it: higher T/C = longer survival. An outline of the steps:
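Vehicle-treated tumor-bearing mice served as controls (C) for compound-treated mice (T). Reported figure is T divided by C.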

[1] abbreviates: T/C endpoint: mean survival time, dose: 200.0 mg/kg/injection, schedule: Q01DX009 (ip), vehicle: saline with Tween-80.
The mark [2] stands for this setting: T/C endpoint: mean survival time, dose: 200.0 mg/kg/injection, schedule: Q04DX002 (ip), vehicle: saline with Tween-80.
[3] abbreviates: T/C endpoint: mean survival time, dose: 400.0 mg/kg/injection, schedule: Q04DX002 (ip), vehicle: saline with Tween-80.
[4] abbreviates: T/C endpoint: mean survival time, dose: 400.0 mg/kg/injection, schedule: Q04DX003 (ip), vehicle: saline with Tween-80.
Setting [5] is: T/C endpoint: mean survival time, dose: 200.0 mg/kg/injection, schedule: Q04DX003 (ip), vehicle: saline with Tween-80.
The mark [6] stands for this setting: T/C endpoint: mean survival time, dose: 200.0 mg/kg/injection, schedule: Q04DX003 (ip), vehicle: saline.
[7] abbreviates: T/C endpoint: mean survival time, dose: 400.0 mg/kg/injection, schedule: Q04DX003 (ip), vehicle: saline.

As for `O=S(=O)(O)c1ccc(/C2=c3\cc/c([n-]3)=C(\c3ccc(S(=O)(=O)O)cc3)c3ccc([n-]3)/C(c3ccc(S(=O)(=O)O)cc3)=c3/cc/c([n-]3)=C(\c3ccc(S(=O)(=O)O)cc3)c3ccc2[n-]3)cc1.[Co]`, the survivor count (T/C endpoint: mean survival time, dose: 400.0 mg/kg/injection, schedule: Q04DX002 (ip), vehicle: saline) is 0 of 3.
Turning to `CCCC(C)C1(CC)C(=O)NC(=O)NC1=O` (stereo not given), the survivor count (T/C endpoint: mean survival time, dose: 80.0 mg/kg/injection, schedule: Q01DX009 (ip), vehicle: saline) was 5 of 6.
`C=CCOC(=N)C(Cl)(Cl)Cl`: the survivor count under setting [1] is 3 of 3.
Take `COc1ccc(N(C)c2ccc(C(=C3C=CC(=[N+](C)CCO)C=C3)c3ccc(N(C)CCO)cc3)cc2)cc1`: the T/C (T/C endpoint: mean survival time, dose: 12.5 mg/kg/injection, schedule: Q04DX002 (ip), vehicle: saline with Tween-80) was 141 % of control. For the same compound, the survivor count by setting is: (T/C endpoint: mean survival time, dose: 100.0 mg/kg/injection, schedule: Q04DX002 (ip), vehicle: saline with Tween-80) 0 of 3; under setting [2], 0 of 3; under setting [3], 0 of 3.
Regarding `[Cl][Pt+2][Cl].[NH-]CC([NH-])CN`, for the setting “T/C endpoint: mean survival time, dose: 25.0 mg/kg/injection, schedule: Q04DX003 (ip), vehicle: saline”, the survivor count is reported as 3 of 6.
As for `Cc1cc(O)c(C)c(C)c1Cl`, the survivor count under setting [4] was 2 of 6.
For the compound `CC([NH-])C([NH-])O.[Br][Pt+2][Br]` (stereo not given), the T/C (T/C endpoint: mean survival time, dose: 6.25 mg/kg/injection, schedule: Q04DX003 (ip), vehicle: saline with Tween-80) was 130 % of control and the T/C (T/C endpoint: mean survival time, dose: 12.5 mg/kg/injection, schedule: Q04DX003 (ip), vehicle: saline with Tween-80) is 142 % of control.
In the case of `COc1cc2c(c(OC)c1OC)-c1cc(I)c(O)cc1[C@@H](NC(C)=O)CC2`, the T/C is, setting by setting: (T/C endpoint: mean survival time, dose: 25.0 mg/kg/injection, schedule: Q01DX009 (ip), vehicle: saline with Tween-80) 136 % of control; (T/C endpoint: mean survival time, dose: 50.0 mg/kg/injection, schedule: Q01DX009 (ip), vehicle: saline with Tween-80) 132 % of control. In addition, the survivor count (T/C endpoint: mean survival time, dose: 132.0 mg/kg/injection, schedule: Q01DX009 (ip), vehicle: saline with Tween-80) is reported as 6 of 6; the survivor count under setting [1] is given as 6 of 6; the survivor count (T/C endpoint: mean survival time, dose: 300.0 mg/kg/injection, schedule: Q01DX009 (ip), vehicle: saline with Tween-80) is recorded as 5 of 6.
`CCC(C#N)C1=CCCCCC1` (stereo not given): the survivor count runs as follows: under setting [5], 5 of 6; under setting [4], 0 of 6.
Regarding `CCOC(=O)c1cnc2c(cnn2CC)c1N1CCN(CCO)CC1`, the survivor count was 0 of 3 (T/C endpoint: mean survival time, dose: 200.0 mg/kg/injection, schedule: Q04DX003 (ip), vehicle: Klucel (hydroxypropylcellulose) (HPC)) and 0 of 3 (T/C endpoint: mean survival time, dose: 400.0 mg/kg/injection, schedule: Q04DX003 (ip), vehicle: Klucel (hydroxypropylcellulose) (HPC)).
As for `O=C(c1cc2c3ccccc3ccc2c2ccccc12)C(Br)Br`, the survivor count was 5 of 6 under setting [5] and 5 of 6 under setting [4].
For `Cc1nc2c(ncn2C2OC3COP(=O)(O)OC3C2O)c2nccn12` (stereo not given), the survivor count (T/C endpoint: mean survival time, dose: 200.0 mg/kg/injection, schedule: Q01DX005 (ip), vehicle: water) was 0 of 5.
Consider `C=C1C(O)CC2CC1C2(C)C` (stereo not given), for which the survivor count (T/C endpoint: mean survival time, dose: 100.0 mg/kg/injection, schedule: Q01DX009 (ip), vehicle: saline with Tween-80) is listed as 3 of 6 and the survivor count under setting [1] was 0 of 6.
Turning to `c1cc2[nH]c3ccncc3c2cn1`, the survivor count (T/C endpoint: mean survival time, dose: 200.0 mg/kg/injection, schedule: Q01DX009 (ip), vehicle: saline sonified) is 0 of 6.
`c1ccc(C(Nc2ncnc3nncnc23)c2ccccc2)cc1`: the survivor count reads like this: (T/C endpoint: mean survival time, dose: 150.0 mg/kg/injection, schedule: Q01DX001 (ip), vehicle: other) 2 of 6; (T/C endpoint: mean survival time, dose: 300.0 mg/kg/injection, schedule: Q01DX001 (ip), vehicle: other) 0 of 6.
In the case of `CC1(C)N=C(N)N=C(N)N1c1cccc(CCCCc2ccc(S(=O)(=O)F)cc2)c1`, the survivor count (T/C endpoint: mean survival time, dose: 50.0 mg/kg/injection, schedule: Q01DX009 (ip), vehicle: saline) is 1 of 6; the survivor count (T/C endpoint: mean survival time, dose: 100.0 mg/kg/injection, schedule: Q01DX009 (ip), vehicle: saline) is reported as 1 of 6; the survivor count (T/C endpoint: mean survival time, dose: 200.0 mg/kg/injection, schedule: Q01DX009 (ip), vehicle: saline) was 0 of 6; the survivor count (T/C endpoint: mean survival time, dose: 400.0 mg/kg/injection, schedule: Q01DX009 (ip), vehicle: saline) was 0 of 6.
Take `CC(C)(C)C1=CC(=N/S(=O)(=O)c2ccccc2)/C(N=[N+]=[N-])=C(Cl)C/1=N\S(=O)(=O)c1ccccc1`: where the note is “T/C endpoint: mean survival time, dose: 100.0 mg/kg/injection, schedule: Q01DX001 (ip), vehicle: saline with Tween-80”, the survivor count is reported as 3 of 3.
With `N/N=C1\CC2C3CC4(OCCO4)C4C3CC2C14` (stereo not given), the survivor count (T/C endpoint: mean survival time, dose: 300.0 mg/kg/injection, schedule: Q01DX001 (ip), vehicle: saline) is 1 of 6.
Consider `CC(=O)NC1=NC(=O)/C(=C/Cc2cccs2)N1C`, for which the survivor count (T/C endpoint: mean survival time, dose: 400.0 mg/kg/injection, schedule: Q01DX009 (ip), vehicle: saline with Tween-80) was 0 of 6.
For the compound `C=C1C(=O)OC2CC3(C)OC3CC/C(C)=C/C(OC(C)=O)C12` (stereo not given), the survivor count under setting [4] is reported as 0 of 6.
As to `CCCC(=O)c1cccc([N+](=O)[O-])c1`, the T/C (T/C endpoint: mean survival time, dose: 100.0 mg/kg/injection, schedule: Q01DX009 (ip), vehicle: other) was 94, 98, 103 (2×), 112 % of control; the T/C (T/C endpoint: mean survival time, dose: 200.0 mg/kg/injection, schedule: Q01DX009 (ip), vehicle: other) is 97, 101, 103, 108, 113 % of control; the T/C (T/C endpoint: mean survival time, dose: 400.0 mg/kg/injection, schedule: Q01DX009 (ip), vehicle: other) was 97 (3×), 104 [5 of 6 alive], 133 % of control.
For `Cc1nc2c(n1C)C(=O)c1ccccc1C2=O`, the survivor count under setting [6] is reported as 3 of 6 and the survivor count under setting [7] is 0 of 6.
For `[Cl][Pt+2][Cl].[NH-]C1CCCC1.[NH-]C1CCCC1`, the T/C (T/C endpoint: mean survival time, dose: 40.0 mg/kg/injection, schedule: Q01DX009 (ip), vehicle: Klucel (hydroxypropylcellulose) (HPC)) is 125 % of control; the T/C (T/C endpoint: mean survival time, dose: 80.0 mg/kg/injection, schedule: Q01DX009 (ip), vehicle: Klucel (hydroxypropylcellulose) (HPC)) is 127 % of control; the T/C (T/C endpoint: mean survival time, dose: 160.0 mg/kg/injection, schedule: Q01DX009 (ip), vehicle: Klucel (hydroxypropylcellulose) (HPC)) is 139 % of control.
For `O=[N+]([O-])c1ccc(Nc2ccc(Br)cc2)c([N+](=O)[O-])c1`, under setting [4], the survivor count is 6 of 6.
Turning to `Cc1ccc2c(c1)C1(C)OC(C=CC1=O)O2` (stereo not given), the survivor count is, setting by setting: (T/C endpoint: median survival time, dose: 50.0 mg/kg/injection, schedule: Q01DX005 (ip), vehicle: Klucel (hydroxypropylcellulose) (HPC)) 3 of 6; (T/C endpoint: median survival time, dose: 100.0 mg/kg/injection, schedule: Q01DX005 (ip), vehicle: Klucel (hydroxypropylcellulose) (HPC)) 0 of 6; (T/C endpoint: median survival time, dose: 200.0 mg/kg/injection, schedule: Q01DX005 (ip), vehicle: Klucel (hydroxypropylcellulose) (HPC)) 0 of 6; (T/C endpoint: median survival time, dose: 400.0 mg/kg/injection, schedule: Q01DX005 (ip), vehicle: Klucel (hydroxypropylcellulose) (HPC)) 0 of 6.
Regarding `CCCn1cnc2c(=S)nc[nH]c21`, the survivor count runs as follows: (T/C endpoint: mean survival time, dose: 250.0 mg/kg/injection, schedule: Q01DX Z (ip), vehicle: carboxymethylcellulose (CMC)) 6 of 7; (T/C endpoint: mean survival time, dose: 300.0 mg/kg/injection, schedule: Q01DX Z (ip), vehicle: carboxymethylcellulose (CMC)) 3 of 7.
Take `CC(C)=CCCC(C)CCN(C)C` (stereo not given): the survivor count under setting [6] was 1 of 6 and the survivor count under setting [7] was 0 of 6.
Turning to `S=c1nccc[nH]1`, the survivor count is 0 of 3 under setting [2] and 0 of 3 under setting [3].
Consider `O=C(COc1ccc(Cl)c(Cl)c1)NCCc1cc[n+](Cc2ccc(Cl)cc2S(=O)(=O)F)cc1`, for which the survivor count (T/C endpoint: mean survival time, dose: 400.0 mg/kg/injection, schedule: Q01DX001 (ip), vehicle: saline with Tween-80) was 0 of 6.
As to `CCN(CC)CCCC(C)Nc1ncnc2oc(C)c(C)c12` (stereo not given), the survivor count is, setting by setting: (T/C endpoint: mean survival time, dose: 100.0 mg/kg/injection, schedule: Q04DX003 (ip), vehicle: saline with Tween-80) 2 of 6; under setting [5], 1 of 6; under setting [4], 0 of 6.
In the case of `COC(=O)NC1C(C)OC(OC2C/C=C(/C)C3C=CC4C(OC5CC(OC6CCC(OC7CC(O)C(OC8CCC(O)C(C)O8)C(C)O7)C(C)O6)C(OC(C)=O)C(C)O5)C(C)CC(C)C4C3(C)/C(O)=C3/C(=O)OC4(CC(C=O)=CC(O)C4/C=C\2C)C3=O)CC1(C)[N+](=O)[O-]` (stereo not given), for the setting “T/C endpoint: median survival time, dose: 20.0 mg/kg/injection, schedule: Q01DX009 (ip), vehicle: water”, the survivor count was 1 of 6.
